Literature values in patent publication US12440440B2, “Dry powder esketamine composition for use in the treatment of bipolar depression by pulmonary administration” (Novohale Therapeutics, LLC, priority 2017, dated 2025).
Some entries share one result that the patent states for a list of compounds.

Conditions: in vivo; cited from earlier work

CN[C@]1(c2ccccc2Cl)CCCCC1=O [esketamine]
time to effect from administration: 2 to 3 h

CNC1(c2ccccc2Cl)CCCCC1=O (racemic) [ketamine]
time to effect from administration: 2 to 3 h
